T/C and survivor count data for 24 compounds are collected here from PubChem BioAssay AID330 (DTP/NCI, 2004).

This test has as its system P388 leukemia ip, CD2F1 mice, survival T/C. Kind of test: NCI In Vivo Anticancer Drug Screen. Data for tumor model P388 Leukemia (intraperitoneal) in CD2F1 (CDF1) mice. As to conditions: T/C endpoint: median survival time, higher T/C = longer survival.
[1] abbreviates: dose: 50.0 mg/kg/injection, schedule: Q01DX009 (ip), vehicle: distilled water + Tween-80.
[2] abbreviates: dose: 100.0 mg/kg/injection, schedule: Q01DX009 (ip), vehicle: distilled water + Tween-80.
[3] abbreviates: dose: 200.0 mg/kg/injection, schedule: Q01DX009 (ip), vehicle: distilled water + Tween-80.
Where [4] appears, read: dose: 100.0 mg/kg/injection, schedule: Q01DX005 (ip), vehicle: Klucel (hydroxypropylcellulose) (HPC).
[5] abbreviates: dose: 200.0 mg/kg/injection, schedule: Q01DX005 (ip), vehicle: Klucel (hydroxypropylcellulose) (HPC).
Setting [6] is: dose: 200.0 mg/kg/injection, schedule: Q01DX005 (ip), vehicle: saline with Tween-80.
Where [7] appears, read: dose: 100.0 mg/kg/injection, schedule: Q01DX009 (ip), vehicle: saline.

The list is a part of this screen's results and no random one: it gathers tests that were run many times, whatever their T/C, doses with no T/C, and many T/C values between a quarter and a half above the control. Other doses and runs of a compound stand elsewhere. T/C gives the treated animals as a percentage of the vehicle group. Some doses have a count of surviving animals in place of a T/C: the source files T/C as zero there, which appears to mark a toxic dose or a test without result, not a measured value. Some doses without a T/C left all or most animals alive at the check, yet need not have been tolerated: the source hardly ever lists a survival T/C far under the control, and the zero likely stands for such cases as well. Survivors were counted at the toxicity check, usually on the fifth day, unless a day is given; later deaths do not show. Schedules are NCI's codes, read here as Q, the interval in days (D) or hours (H), X, the number of doses. Some entries hold several experiments; the results are listed from low to high. For survival time, this PubChem deposit counts one and a half times the control or more as active, and values a quarter to a half above the control carry no call in these data; other NCI protocols may use other cut-offs. Some T/C values carry the count of animals alive at the toxicity check (mostly the fifth day); where none is given, no animal had died by that day.

Turning to `COc1ccc2c(c1)CCn1c(C)c(COC(=O)NC(C)C)c(COC(=O)NC(C)C)c1-2`, the T/C is, setting by setting: (dose: 3.13 mg/kg/injection, schedule: Q01DX009 (ip), vehicle: distilled water + Tween-80) 142 % of control; (dose: 6.25 mg/kg/injection, schedule: Q01DX009 (ip), vehicle: distilled water + Tween-80) 136 % of control. For the same compound, the survivor count was 0 of 6 and 6 of 6 under setting [1]; 3 of 6 under setting [2]; 0 of 6 under setting [3].

For the compound `CC(=O)c1cc[c]([Sn]([CH3])([Cl])[c]2ccccc2)cc1` (stereo unspecified), the survivor count is 0 of 6 (dose: 30.0 mg/kg/injection, schedule: Q01DX005 (ip), vehicle: Klucel (hydroxypropylcellulose) (HPC)); 0 of 6 (dose: 120.0 mg/kg/injection, schedule: Q01DX005 (ip), vehicle: Klucel (hydroxypropylcellulose) (HPC)); 0 of 6 (dose: 240.0 mg/kg/injection, schedule: Q01DX005 (ip), vehicle: Klucel (hydroxypropylcellulose) (HPC)).

For `BrCC1(c2ccccc2)OCCO1`, the survivor count reads like this: (dose: 100.0 mg/kg/injection, schedule: Q04DX002 (ip), vehicle: Klucel (hydroxypropylcellulose) (HPC)) 0 of 6; (dose: 200.0 mg/kg/injection, schedule: Q04DX002 (ip), vehicle: Klucel (hydroxypropylcellulose) (HPC)) 0 of 6; (dose: 400.0 mg/kg/injection, schedule: Q04DX002 (ip), vehicle: Klucel (hydroxypropylcellulose) (HPC)) 0 of 6.

Take `N#Cc1ccc(NC(=O)Nc2nncs2)cc1`: the T/C runs as follows: under setting [1], 130 and 131 % of control; under setting [2], 130 and 140 % of control; under setting [3], 146 % of control [4 of 6 alive]. Moreover, the survivor count (dose: 400.0 mg/kg/injection, schedule: Q01DX009 (ip), vehicle: distilled water + Tween-80) was 0 of 6 and 3 of 6.

Turning to `C=C1CC[N+]2(CCCC)CCCC12` (stereo unspecified), the survivor count is recorded as 0 of 6 (dose: 60.0 mg/kg/injection, schedule: Q01DX005 (ip), vehicle: saline); 0 of 6 (dose: 120.0 mg/kg/injection, schedule: Q01DX005 (ip), vehicle: saline); 0 of 6 (dose: 240.0 mg/kg/injection, schedule: Q01DX005 (ip), vehicle: saline).

For the compound `COc1ccc(C(=O)c2cc3c(ccc4ccccc43)oc2=O)cc1`, the survivor count is, setting by setting: (dose: 50.0 mg/kg/injection, schedule: Q01DX009 (ip), vehicle: suspension in saline) 6 of 6; (dose: 100.0 mg/kg/injection, schedule: Q01DX009 (ip), vehicle: suspension in saline) 5 of 6; (dose: 200.0 mg/kg/injection, schedule: Q01DX009 (ip), vehicle: suspension in saline) 6 of 6.

On to `CCOC(=O)CNC(=O)Sc1ccc(C(C)(C)C)cc1C`, for which the T/C (dose: 200.0 mg/kg/injection, schedule: Q01DX005 (ip), vehicle: saline + Tween-80 + alcohol) was 127 % of control.

As to `O=C(Nc1ccccc1)/C(Cl)=C(/Cl)C(=O)C(Cl)(Cl)Cl`, the survivor count is reported as 0 of 6 under setting [1], 0 of 6 under setting [2] and 0 of 6 under setting [3].

For `CCc1ccc(NC(=O)NC(=O)c2c(F)cccc2F)cc1`, for the setting “dose: 25.0 mg/kg/injection, schedule: Q01DX009 (ip), vehicle: saline”, the survivor count is recorded as 6 of 6.

On to `N#CC(C#N)=NNc1ccc2cn[nH]c2c1`, for which, under setting [4], the T/C is 129 and 133 % of control; the survivor count is 5 of 5. Further, under setting [5], the survivor count is on record as 0 of 5.

`CCN(CC)C(=O)Cn1cc([N+](=O)[O-])sc1=NC(=O)c1ccco1`: the survivor count (dose: 400.0 mg/kg/injection, schedule: Q01DX001 (ip), vehicle: Klucel (hydroxypropylcellulose) (HPC)) is 1 of 6.

With `COc1ccc2c(c1)OCCN(C)OC2c1ccccc1` (stereo unspecified), the survivor count under setting [6] is reported as 6 of 6.

For `COC(=O)C1C(C2OC3OC(C)(C)OC3C3OC(C)(C)OC32)N1C(=O)Cl` (stereo unspecified), the survivor count (dose: 400.0 mg/kg/injection, schedule: Q04DX002 (ip), vehicle: saline with Tween-80) was 4 of 6.

Turning to `COc1ccc2c(c1)C1CCN(C)CC1OC2=O` (stereo unspecified), the survivor count by setting is: (dose: 100.0 mg/kg/injection, schedule: Q01DX009 (ip), vehicle: saline with Tween-80) 3 of 6; (dose: 200.0 mg/kg/injection, schedule: Q01DX009 (ip), vehicle: saline with Tween-80) 1 of 6.

`CC(C)(C)c1cc(I)c(O)c(CN)c1`: for the setting “dose: 50.0 mg/kg/injection, schedule: Q01DX009 (ip), vehicle: saline”, the T/C was 126 % of control. Also, the survivor count under setting [7] was 6 of 6.

As to `CCCS(=O)(=O)N/N=C(\C)c1cccs1`, under “dose: 200.0 mg/kg/injection, schedule: Q01DX009 (ip), vehicle: Klucel (hydroxypropylcellulose) (HPC)”, the survivor count is given as 6 of 6.

Regarding `Nc1nc(/C=C(/O)c2ccccc2)c2ncn(C3OC(CO)C(O)C3O)c2n1` (stereo unspecified), the survivor count (dose: 400.0 mg/kg/injection, schedule: Q01DX009 (ip), vehicle: saline with Tween-80) was 0 of 5.

Take `C(=N\Nc1nnc2c3cccnc3c3ccccc3c2n1)/c1ccc2c(c1)OCO2`: under “dose: 400.0 mg/kg/injection, schedule: Q01DX001 (ip), vehicle: saline with Tween-80”, the survivor count is on record as 1 of 6.

Consider `C1CCN(P2(N3CCCCC3)=NP(N3CCCCC3)(N3CCCCC3)=NP(N3CCCCC3)(N3CCCCC3)=NP(N3CCCCC3)(N3CCCCC3)=N2)CC1`, for which, under setting [6], the survivor count is 6 of 6.

Regarding `C[n+]1ccc(Nc2ccc(NC(=O)c3ccc(Nc4cc[n+](C)c5ccc(N)cc45)cc3)cc2)cc1`, the T/C reads like this: (dose: 1.73 mg/kg/injection, schedule: Q04DX003 (ip), vehicle: water) 143 % of control; (dose: 1.94 mg/kg/injection, schedule: Q04DX003 (ip), vehicle: water) 130 % of control; (dose: 3.24 mg/kg/injection, schedule: Q04DX003 (ip), vehicle: water) 130 % of control; (dose: 5.4 mg/kg/injection, schedule: Q04DX003 (ip), vehicle: water) 140 % of control. In addition, the survivor count reads like this: (dose: 2.0 mg/kg/injection, schedule: Q01DX005 (iv), vehicle: suspension in saline) 3 of 6; (dose: 4.0 mg/kg/injection, schedule: Q01DX005 (iv), vehicle: suspension in saline) 0 of 6; (dose: 8.0 mg/kg/injection, schedule: Q01DX005 (iv), vehicle: suspension in saline) 0 of 6; (dose: 15.0 mg/kg/injection, schedule: Q04DX003 (ip), vehicle: water) 5 of 8; (dose: 16.0 mg/kg/injection, schedule: Q01DX005 (ip), vehicle: suspension in saline) 5 of 6; (dose: 16.0 mg/kg/injection, schedule: Q01DX005 (iv), vehicle: suspension in saline) 0 of 6. Also, the survivor count runs as follows: (dose: 32.0 mg/kg/injection, schedule: Q01DX005 (ip), vehicle: suspension in saline) 1 of 6; (dose: 32.0 mg/kg/injection, schedule: Q01DX005 (iv), vehicle: suspension in saline) 0 of 6.

As to `O=C(NCCCl)Oc1cccn(C(=O)NCCCl)c1=O`, the survivor count is listed as 5 of 6 under setting [7]; 0 of 6 (dose: 200.0 mg/kg/injection, schedule: Q01DX009 (ip), vehicle: saline); 0 of 6 (dose: 400.0 mg/kg/injection, schedule: Q01DX009 (ip), vehicle: saline); 4 of 6 (dose: 400.0 mg/kg/injection, schedule: Q01DX009 (sc), vehicle: saline with Tween-80).

`C=C1C(=O)OC2C1C(OC(=O)C(C)CC)CC1(O)COC3(O)C1C2C1(C)OC13` (stereo unspecified): the survivor count reads like this: (dose: 50.0 mg/kg/injection, schedule: Q01DX001 (ip), vehicle: Klucel (hydroxypropylcellulose) (HPC)) 1 of 6; (dose: 100.0 mg/kg/injection, schedule: Q01DX001 (ip), vehicle: Klucel (hydroxypropylcellulose) (HPC)) 0 of 6.

For `CCC1=CCC2C(=O)C3CC(CC)=CCC3C(=O)C2C1` (stereo unspecified), the survivor count reads like this: under setting [4], 5 of 5; under setting [5], 5 of 5.

On to `C=C(C)C1CC2(C)C(C)CC(O)CC2C(OC(=O)C=C(C)C)C1O` (stereo unspecified), for which the survivor count (dose: 12.5 mg/kg/injection, schedule: Q01DX009 (ip), vehicle: Klucel (hydroxypropylcellulose) (HPC)) was 6 of 6.
